Results reported in paper PMC6713327.
These are yes or no findings as the source states them, for the method shown. In cells and extracts the contact can be indirect. Here binding means that the protein was enriched with, or labelled near, the bait; the list need not be complete. Values belong to the molecule of their own block, whether it stands above or below them.

Sequences of proteins named here, by UniProt entry; tags and fusion partners are left off.
UniProt Q8TAQ2: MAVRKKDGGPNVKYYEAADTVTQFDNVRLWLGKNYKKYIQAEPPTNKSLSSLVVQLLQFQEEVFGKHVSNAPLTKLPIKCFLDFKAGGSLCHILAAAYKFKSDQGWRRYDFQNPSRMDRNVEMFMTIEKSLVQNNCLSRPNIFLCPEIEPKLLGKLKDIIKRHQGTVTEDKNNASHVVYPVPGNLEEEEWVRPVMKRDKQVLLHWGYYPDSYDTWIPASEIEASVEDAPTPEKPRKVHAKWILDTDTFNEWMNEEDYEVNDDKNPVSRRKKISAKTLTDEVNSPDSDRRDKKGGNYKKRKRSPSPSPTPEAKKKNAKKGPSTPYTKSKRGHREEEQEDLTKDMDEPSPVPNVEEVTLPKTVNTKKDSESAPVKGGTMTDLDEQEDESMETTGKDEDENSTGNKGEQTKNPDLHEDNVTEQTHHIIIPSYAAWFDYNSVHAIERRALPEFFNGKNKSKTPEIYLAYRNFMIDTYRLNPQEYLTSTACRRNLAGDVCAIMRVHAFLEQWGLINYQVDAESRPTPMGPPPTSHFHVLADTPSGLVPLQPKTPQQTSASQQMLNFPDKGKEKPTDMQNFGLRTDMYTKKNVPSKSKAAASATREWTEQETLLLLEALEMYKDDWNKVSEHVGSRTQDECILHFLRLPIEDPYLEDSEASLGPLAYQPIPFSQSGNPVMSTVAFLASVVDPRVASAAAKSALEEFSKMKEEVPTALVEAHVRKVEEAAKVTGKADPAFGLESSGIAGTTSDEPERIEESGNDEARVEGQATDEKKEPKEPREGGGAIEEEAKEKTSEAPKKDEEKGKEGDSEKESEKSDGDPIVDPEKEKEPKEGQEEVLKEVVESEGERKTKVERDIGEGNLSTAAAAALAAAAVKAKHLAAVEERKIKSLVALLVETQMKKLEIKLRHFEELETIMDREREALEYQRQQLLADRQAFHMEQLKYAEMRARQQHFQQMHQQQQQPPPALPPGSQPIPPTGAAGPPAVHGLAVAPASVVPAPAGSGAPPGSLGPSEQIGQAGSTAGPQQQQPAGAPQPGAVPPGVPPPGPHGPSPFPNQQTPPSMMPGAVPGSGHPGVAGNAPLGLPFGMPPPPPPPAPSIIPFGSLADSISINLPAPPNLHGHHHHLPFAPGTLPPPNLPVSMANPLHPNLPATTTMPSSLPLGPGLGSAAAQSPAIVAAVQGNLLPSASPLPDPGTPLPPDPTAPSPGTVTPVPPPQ
UniProt P51531: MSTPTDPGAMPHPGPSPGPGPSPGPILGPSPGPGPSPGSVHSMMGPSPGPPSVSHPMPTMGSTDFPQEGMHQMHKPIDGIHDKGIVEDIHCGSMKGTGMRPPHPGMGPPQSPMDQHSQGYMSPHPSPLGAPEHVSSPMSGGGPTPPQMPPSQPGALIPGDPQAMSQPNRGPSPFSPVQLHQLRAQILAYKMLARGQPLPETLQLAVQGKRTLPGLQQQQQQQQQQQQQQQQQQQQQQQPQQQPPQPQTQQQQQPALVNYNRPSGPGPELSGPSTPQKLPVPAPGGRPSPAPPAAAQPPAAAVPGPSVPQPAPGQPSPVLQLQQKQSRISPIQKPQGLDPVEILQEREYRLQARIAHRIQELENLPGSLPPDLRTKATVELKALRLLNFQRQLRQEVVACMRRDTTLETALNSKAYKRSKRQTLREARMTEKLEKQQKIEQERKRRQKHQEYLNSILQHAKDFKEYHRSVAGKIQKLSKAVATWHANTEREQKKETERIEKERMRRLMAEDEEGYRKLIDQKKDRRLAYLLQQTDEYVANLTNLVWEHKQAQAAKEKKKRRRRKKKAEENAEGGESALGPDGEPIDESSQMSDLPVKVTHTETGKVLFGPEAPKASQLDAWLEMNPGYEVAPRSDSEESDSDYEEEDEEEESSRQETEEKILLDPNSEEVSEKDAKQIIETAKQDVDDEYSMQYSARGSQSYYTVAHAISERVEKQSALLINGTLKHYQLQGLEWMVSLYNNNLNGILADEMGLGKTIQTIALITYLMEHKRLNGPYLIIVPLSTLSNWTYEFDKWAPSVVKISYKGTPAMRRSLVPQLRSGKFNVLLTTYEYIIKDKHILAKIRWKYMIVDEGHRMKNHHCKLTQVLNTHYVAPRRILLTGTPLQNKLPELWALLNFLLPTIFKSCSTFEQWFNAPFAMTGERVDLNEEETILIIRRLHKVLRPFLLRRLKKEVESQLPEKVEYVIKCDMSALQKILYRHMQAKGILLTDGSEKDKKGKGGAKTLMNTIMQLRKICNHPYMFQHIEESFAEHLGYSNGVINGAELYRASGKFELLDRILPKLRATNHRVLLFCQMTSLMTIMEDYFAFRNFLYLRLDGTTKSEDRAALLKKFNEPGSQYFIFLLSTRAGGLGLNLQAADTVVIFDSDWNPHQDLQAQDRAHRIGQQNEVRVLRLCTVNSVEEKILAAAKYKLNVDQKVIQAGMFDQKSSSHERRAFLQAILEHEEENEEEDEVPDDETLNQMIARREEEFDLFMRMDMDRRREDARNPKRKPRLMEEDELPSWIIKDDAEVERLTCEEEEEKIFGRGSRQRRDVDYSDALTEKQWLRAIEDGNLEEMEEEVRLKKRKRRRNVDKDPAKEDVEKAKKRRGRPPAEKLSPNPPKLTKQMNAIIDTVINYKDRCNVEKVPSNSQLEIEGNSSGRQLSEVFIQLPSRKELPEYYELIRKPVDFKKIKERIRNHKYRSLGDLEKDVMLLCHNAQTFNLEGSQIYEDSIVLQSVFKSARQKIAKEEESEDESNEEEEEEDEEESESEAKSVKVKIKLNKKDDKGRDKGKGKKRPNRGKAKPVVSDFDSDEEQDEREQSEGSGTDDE
UniProt P51587: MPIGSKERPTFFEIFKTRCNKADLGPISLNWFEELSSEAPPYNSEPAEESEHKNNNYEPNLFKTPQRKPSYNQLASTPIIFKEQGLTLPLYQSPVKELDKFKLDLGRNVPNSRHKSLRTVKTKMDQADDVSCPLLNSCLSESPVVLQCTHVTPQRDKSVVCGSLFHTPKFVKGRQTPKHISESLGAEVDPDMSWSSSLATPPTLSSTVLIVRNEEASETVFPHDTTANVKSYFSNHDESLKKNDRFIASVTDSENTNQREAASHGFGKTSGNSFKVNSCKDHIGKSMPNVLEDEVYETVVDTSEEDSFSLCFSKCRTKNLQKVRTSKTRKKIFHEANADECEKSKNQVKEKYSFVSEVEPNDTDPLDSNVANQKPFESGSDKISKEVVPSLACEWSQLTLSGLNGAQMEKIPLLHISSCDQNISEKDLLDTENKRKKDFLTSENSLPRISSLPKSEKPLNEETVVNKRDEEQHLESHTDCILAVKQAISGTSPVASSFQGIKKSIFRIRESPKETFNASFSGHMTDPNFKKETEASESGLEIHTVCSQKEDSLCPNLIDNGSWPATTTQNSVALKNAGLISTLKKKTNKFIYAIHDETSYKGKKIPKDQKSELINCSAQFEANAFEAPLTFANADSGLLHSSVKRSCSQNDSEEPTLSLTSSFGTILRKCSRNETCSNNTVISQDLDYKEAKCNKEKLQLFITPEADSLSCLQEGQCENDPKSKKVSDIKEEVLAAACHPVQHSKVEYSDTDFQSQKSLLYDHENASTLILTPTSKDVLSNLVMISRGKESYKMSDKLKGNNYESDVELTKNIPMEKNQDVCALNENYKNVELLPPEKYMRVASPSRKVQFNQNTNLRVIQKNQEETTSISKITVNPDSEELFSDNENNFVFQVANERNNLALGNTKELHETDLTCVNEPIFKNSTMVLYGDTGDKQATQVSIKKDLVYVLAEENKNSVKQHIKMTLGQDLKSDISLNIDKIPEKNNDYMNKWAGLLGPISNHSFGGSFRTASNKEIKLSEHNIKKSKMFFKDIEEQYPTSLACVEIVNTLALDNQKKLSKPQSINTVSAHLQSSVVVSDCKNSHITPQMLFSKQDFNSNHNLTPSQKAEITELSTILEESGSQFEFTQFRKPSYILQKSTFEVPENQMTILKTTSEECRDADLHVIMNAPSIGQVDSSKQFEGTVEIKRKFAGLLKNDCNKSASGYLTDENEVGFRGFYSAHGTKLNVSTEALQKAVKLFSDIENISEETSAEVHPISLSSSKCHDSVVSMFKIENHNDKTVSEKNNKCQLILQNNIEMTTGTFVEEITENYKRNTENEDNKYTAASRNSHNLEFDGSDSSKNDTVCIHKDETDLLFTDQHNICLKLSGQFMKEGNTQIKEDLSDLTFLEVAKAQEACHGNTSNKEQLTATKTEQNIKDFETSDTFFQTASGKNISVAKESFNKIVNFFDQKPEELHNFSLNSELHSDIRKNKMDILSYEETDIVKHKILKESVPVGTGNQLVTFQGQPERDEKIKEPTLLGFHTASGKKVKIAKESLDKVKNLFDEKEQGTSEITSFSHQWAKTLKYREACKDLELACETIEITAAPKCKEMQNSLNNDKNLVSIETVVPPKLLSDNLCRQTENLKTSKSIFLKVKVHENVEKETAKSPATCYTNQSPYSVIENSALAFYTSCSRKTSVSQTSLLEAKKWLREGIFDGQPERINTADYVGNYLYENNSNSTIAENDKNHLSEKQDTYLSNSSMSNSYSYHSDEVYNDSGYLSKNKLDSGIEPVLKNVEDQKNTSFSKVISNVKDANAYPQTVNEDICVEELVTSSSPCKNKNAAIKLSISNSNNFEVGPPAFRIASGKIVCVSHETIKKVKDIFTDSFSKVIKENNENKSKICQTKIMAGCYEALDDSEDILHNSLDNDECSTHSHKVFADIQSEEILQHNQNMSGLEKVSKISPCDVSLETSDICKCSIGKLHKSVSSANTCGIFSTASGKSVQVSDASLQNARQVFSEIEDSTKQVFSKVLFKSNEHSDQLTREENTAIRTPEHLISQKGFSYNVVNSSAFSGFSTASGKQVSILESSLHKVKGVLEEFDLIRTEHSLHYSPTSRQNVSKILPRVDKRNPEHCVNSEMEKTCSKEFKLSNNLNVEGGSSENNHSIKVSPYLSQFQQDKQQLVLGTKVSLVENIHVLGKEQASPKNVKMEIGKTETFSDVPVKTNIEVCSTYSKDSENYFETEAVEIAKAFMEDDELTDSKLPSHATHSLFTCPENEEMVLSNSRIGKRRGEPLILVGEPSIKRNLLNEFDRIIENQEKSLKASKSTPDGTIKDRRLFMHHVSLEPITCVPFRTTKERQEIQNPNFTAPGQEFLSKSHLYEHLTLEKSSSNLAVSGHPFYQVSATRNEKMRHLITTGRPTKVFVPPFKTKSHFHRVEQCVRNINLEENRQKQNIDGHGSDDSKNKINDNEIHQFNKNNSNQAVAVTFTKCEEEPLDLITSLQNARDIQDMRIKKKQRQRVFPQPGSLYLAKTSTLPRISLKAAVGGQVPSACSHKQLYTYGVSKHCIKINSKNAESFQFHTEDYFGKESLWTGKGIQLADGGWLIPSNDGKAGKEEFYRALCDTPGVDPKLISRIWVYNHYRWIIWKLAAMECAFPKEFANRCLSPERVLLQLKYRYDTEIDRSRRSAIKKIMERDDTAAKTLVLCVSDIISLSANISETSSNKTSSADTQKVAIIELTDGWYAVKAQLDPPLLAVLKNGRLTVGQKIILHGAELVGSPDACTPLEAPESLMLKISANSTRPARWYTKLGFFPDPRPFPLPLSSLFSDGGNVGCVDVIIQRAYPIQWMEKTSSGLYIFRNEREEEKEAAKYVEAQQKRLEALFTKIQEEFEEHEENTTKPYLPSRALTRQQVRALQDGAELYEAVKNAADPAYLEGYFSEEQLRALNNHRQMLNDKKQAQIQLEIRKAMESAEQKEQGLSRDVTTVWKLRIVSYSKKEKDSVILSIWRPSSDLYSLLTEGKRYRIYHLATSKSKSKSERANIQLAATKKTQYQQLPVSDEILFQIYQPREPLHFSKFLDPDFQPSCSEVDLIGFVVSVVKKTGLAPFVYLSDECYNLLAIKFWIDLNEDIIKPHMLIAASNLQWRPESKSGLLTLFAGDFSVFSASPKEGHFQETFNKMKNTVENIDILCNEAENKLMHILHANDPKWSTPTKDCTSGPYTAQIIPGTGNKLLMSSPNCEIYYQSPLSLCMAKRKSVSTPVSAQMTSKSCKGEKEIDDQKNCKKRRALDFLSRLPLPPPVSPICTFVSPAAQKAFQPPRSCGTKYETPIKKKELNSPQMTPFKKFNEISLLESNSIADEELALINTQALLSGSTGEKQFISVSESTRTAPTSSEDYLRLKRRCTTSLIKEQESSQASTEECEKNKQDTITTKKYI

Target: T1, FANCA (human (endogenous in 293FT and EndoC-βH3)) (UniProt O15360)
T1 sequence: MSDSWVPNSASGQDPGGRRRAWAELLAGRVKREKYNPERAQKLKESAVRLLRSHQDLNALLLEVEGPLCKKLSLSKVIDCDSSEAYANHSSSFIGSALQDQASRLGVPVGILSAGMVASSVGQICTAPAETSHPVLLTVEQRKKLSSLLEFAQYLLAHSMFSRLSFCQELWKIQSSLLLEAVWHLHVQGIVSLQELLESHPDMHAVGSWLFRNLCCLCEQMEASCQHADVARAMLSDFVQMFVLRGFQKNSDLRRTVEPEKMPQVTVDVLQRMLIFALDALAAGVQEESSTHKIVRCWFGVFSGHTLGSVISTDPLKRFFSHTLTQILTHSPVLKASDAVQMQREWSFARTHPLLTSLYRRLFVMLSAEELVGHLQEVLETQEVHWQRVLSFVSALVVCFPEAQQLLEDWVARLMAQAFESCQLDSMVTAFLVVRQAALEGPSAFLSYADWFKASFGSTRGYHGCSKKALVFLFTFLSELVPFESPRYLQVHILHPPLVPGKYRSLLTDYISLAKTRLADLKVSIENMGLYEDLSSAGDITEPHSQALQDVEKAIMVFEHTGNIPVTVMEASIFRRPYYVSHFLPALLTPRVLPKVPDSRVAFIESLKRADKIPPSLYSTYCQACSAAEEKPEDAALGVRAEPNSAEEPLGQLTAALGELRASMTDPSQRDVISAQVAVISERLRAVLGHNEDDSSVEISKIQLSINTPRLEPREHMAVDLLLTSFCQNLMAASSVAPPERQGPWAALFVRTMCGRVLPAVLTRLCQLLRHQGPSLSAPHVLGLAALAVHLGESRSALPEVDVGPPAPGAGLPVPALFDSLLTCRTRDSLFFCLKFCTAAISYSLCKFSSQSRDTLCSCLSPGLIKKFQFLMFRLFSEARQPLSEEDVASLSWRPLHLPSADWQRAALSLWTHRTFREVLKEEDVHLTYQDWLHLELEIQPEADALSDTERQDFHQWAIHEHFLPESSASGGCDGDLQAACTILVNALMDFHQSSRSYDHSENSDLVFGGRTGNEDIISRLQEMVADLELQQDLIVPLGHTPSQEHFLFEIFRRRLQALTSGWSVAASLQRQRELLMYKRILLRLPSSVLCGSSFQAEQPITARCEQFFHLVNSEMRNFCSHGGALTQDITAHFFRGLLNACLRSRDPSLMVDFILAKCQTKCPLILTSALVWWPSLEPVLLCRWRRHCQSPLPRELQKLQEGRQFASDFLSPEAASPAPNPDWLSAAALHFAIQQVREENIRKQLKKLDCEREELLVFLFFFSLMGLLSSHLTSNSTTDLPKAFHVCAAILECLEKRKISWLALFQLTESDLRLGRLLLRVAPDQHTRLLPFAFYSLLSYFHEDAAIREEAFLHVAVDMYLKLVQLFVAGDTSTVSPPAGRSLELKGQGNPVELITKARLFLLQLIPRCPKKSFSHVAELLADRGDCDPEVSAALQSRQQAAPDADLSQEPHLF
Test: affinity purification with mass spectrometry; endogenous FANCA precipitated from lysate of EndoC-βH3 cells cultured in 5 mM or 20 mM glucose, anti-FANCA antibody coupled to Dynabeads, 2 h at 4°C; LC-MS/MS, SAINT (BFDR ≤ 0.05, SAINT score = 1.0); biological duplicates

binding: binds
Molecule: SMARCC2 (from UniProt Q8TAQ2 1-1214)

binding: binds
Molecule: SMARCA4 (from UniProt P51532 1-1647)

binding: binds
Molecule: SMARCA2 (from UniProt P51531 1-1590)

binding: binds
Molecule: ATG2A (from UniProt Q2TAZ0 1-1938)

binding: binds
Molecule: Phosphatidylinositol 4-phosphate 3-kinase C2 domain-containing subunit alpha (from UniProt O00443 1-1686)

binding: binds
Molecule: FANCD1 (from UniProt P51587 1-3418)

binding: binds
Molecule: MIA3 (from UniProt Q5JRA6 23-1907)

binding: binds
Molecule: EPRS (from UniProt P07814 1-1512)

binding: binds
B1: WARS (protein, UniProt P23381 1-471)
chain: MPNSEPASLLELFNSIATQGELVRSLKAGNASKDEIDSAVKMLVSLKMSYKAAAGEDYKADCPPGNPAPTSNHGPDATEAEEDFVDPWTVQTSSAKGIDYDKLIVRFGSSKIDKELINRIERATGQRPHHFLRRGIFFSHRDMNQVLDAYENKKPFYLYTGRGPSSEAMHVGHLIPFIFTKWLQDVFNVPLVIQMTDDEKYLWKDLTLDQAYSYAVENAKDIIACGFDINKTFIFSDLDYMGMSSGFYKNVVKIQKHVTFNQVKGIFGFTDSDCIGKISFPAIQAAPSFSNSFPQIFRDRTDIQCLIPCAIDQDPYFRMTRDVAPRIGYPKPALLHSTFFPALQGAQTKMSASDPNSSIFLTDTAKQIKTKVNKHAFSGGRDTIEEHRQFGGNCDVDVSFMYLTFFLEDDDKLEQIRKDYTSGAMLTGELKKALIEVLQPLIAEHQARRKEVTDEIVKEFMTPRKLSFDFQ

binding: binds
B2: RARS (protein, UniProt P54136 1-660)
chain: MDVLVSECSARLLQQEEEIKSLTAEIDRLKNCGCLGASPNLEQLQEENLKLKYRLNILRKSLQAERNKPTKNMINIISRLQEVFGHAIKAAYPDLENPPLLVTPSQQAKFGDYQCNSAMGISQMLKTKEQKVNPREIAENITKHLPDNECIEKVEIAGPGFINVHLRKDFVSEQLTSLLVNGVQLPALGENKKVIVDFSSPNIAKEMHVGHLRSTIIGESISRLFEFAGYDVLRLNHVGDWGTQFGMLIAHLQDKFPDYLTVSPPIGDLQVFYKESKKRFDTEEEFKKRAYQCVVLLQGKNPDITKAWKLICDVSRQELNKIYDALDVSLIERGESFYQDRMNDIVKEFEDRGFVQVDDGRKIVFVPGCSIPLTIVKSDGGYTYDTSDLAAIKQRLFEEKADMIIYVVDNGQSVHFQTIFAAAQMIGWYDPKVTRVFHAGFGVVLGEDKKKFKTRSGETVRLMDLLGEGLKRSMDKLKEKERDKVLTAEELNAAQTSVAYGCIKYADLSHNRLNDYIFSFDKMLDDRGNTAAYLLYAFTRIRSIARLANIDEEMLQKAARETKILLDHEKEWKLGRCILRFPEILQKILDDLFLHTLCDYIYELATAFTEFYDSCYCVEKDRQTGKILKVNMWRMLLCEAVAAVMAKGFDILGIKPVQRM

binding: binds
B3: GARS (protein, UniProt P41250 37-739)
chain: SAASCPPISLPAAASRSSMDGAGAEEVLAPLRLAVRQQGDLVRKLKEDKAPQVDVDKAVAELKARKRVLEAKELALQPKDDIVDRAKMEDTLKRRFFYDQAFAIYGGVSGLYDFGPVGCALKNNIIQTWRQHFIQEEQILEIDCTMLTPEPVLKTSGHVDKFADFMVKDVKNGECFRADHLLKAHLQKLMSDKKCSVEKKSEMESVLAQLDNYGQQELADLFVNYNVKSPITGNDLSPPVSFNLMFKTFIGPGGNMPGYLRPETAQGIFLNFKRLLEFNQGKLPFAAAQIGNSFRNEISPRSGLIRVREFTMAEIEHFVDPSEKDHPKFQNVADLHLYLYSAKAQVSGQSARKMRLGDAVEQGVINNTVLGYFIGRIYLYLTKVGISPDKLRFRQHMENEMAHYACDCWDAESKTSYGWIEIVGCADRSCYDLSCHARATKVPLVAEKPLKEPKTVNVVQFEPSKGAIGKAYKKDAKLVMEYLAICDECYITEMEMLLNEKGEFTIETEGKTFQLTKDMINVKRFQKTLYVEEVVPNVIEPSFGLGRIMYTVFEHTFHVREGDEQRTFFSFPAVVAPFKCSVLPLSQNQEFMPFVKELSEALTRHGVSHKVDDSSGSIGRRYARTDEIGVAFGVTIDFDTVNKTPHTATLRDRDSMRQIRAEISELPSIVQDLANGNITWADVEARYPLFEGQETGKKETIEE

binding: binds
B4: MIA2 (protein, UniProt Q96PC5 20-1412)
chain: LESTKLLADLKKCGDLECEALINRVSAMRDYRGPDCRYLNFTKGEEISVYVKLAGEREDLWAGSKGKEFGYFPRDAVQIEEVFISEEIQMSTKESDFLCLLGVSYTFDNEDSELNGDYGENIYPYEEDKDEKSSIYESDFQIEPGFYATYESTLFEDQVPALEAPEDIGSTSESKDWEEVVVESMEQDRIPEVHVPPSSAVSGVKEWFGLGGEQAEEKAFESVIEPVQESSFRSRKIAVEDENDLEELNNGEPQTEHQQESESEIDSVPKTQSELASESEHIPKPQSTGWFGGGFTSYLGFGDEDTGLELIAEESNPPLQDFPNSISSDKEATVPCTEILTEKKDTITNDSLSLKPSWFDFGFAILGFAYAKEDKIMLDDRKNEEDGGADEHEHPLTSELDPEKEQEIETIKIIETEDQIDKKPVSEKTDESDTIPYLKKFLYNFDNPWNFQNIPKETELPFPKQILDQNNVIENEETGEFSIDNYPTDNTKVMIFKSSYSLSDMVSNIELPTRIHEEVYFEPSSSKDSDENSKPSVDTEGPALVEIDRSVENTLLNSQMVSTDNSLSSQNYISQKEDASEFQILKYLFQIDVYDFMNSAFSPIVILTERVVAALPEGMRPDSNLYGFPWELVICAAVVGFFAVLFFLWRSFRSVRSRLYVGREKKLALMLSGLIEEKSKLLEKFSLVQKEYEGYEVESSLKDASFEKEATEAQSLEATCEKLNRSNSELEDEILCLEKELKEEKSKHSEQDELMADISKRIQSLEDESKSLKSQVAEAKMTFKIFQMNEERLKIAIKDALNENSQLQESQKQLLQEAEVWKEQVSELNKQKVTFEDSKVHAEQVLNDKESHIKTLTERLLKMKDWAAMLGEDITDDDNLELEMNSESENGAYLDNPPKGALKKLIHAAKLNASLKTLEGERNQIYIQLSEVDKTKEELTEHIKNLQTEQASLQSENTHFENENQKLQQKLKVMTELYQENEMKLHRKLTVEENYRLEKEEKLSKVDEKISHATEELETYRKRAKDLEEELERTIHSYQGQIISHEKKAHDNWLAARNAERNLNDLRKENAHNRQKLTETELKFELLEKDPYALDVPNTAFGREHSPYGPSPLGWPSSETRAFLSPPTLLEGPLRLSPLLPGGGGRGSRGPGNPLDHQITNERGESSCDRLTDPHRAPSDTGSLSPPWDQDRRMMFPPPGQSYPDSALPPQRQDRFCSNSGRLSGPAELRSFNMPSLDKMDGSMPSEMESSRNDTKDDLGNLNVPDSSLPAENEATGPGFVPPPLAPIRGPLFPVDARGPFLRRGPPFPPPPPGAMFGASRDYFPPGDFPGPPPAPFAMRNVYPPRGFPPYLPPRPGFFPPPPHSEGRSEFPSGLIPPSNEPATEHPEPQQET

binding: binds
B5: MARS (protein, UniProt P56192 1-900)
chain: MRLFVSDGVPGCLPVLAAAGRARGRAEVLISTVGPEDCVVPFLTRPKVPVLQLDSGNYLFSTSAICRYFFLLSGWEQDDLTNQWLEWEATELQPALSAALYYLVVQGKKGEDVLGSVRRALTHIDHSLSRQNCPFLAGETESLADIVLWGALYPLLQDPAYLPEELSALHSWFQTLSTQEPCQRAAETVLKQQGVLALRPYLQKQPQPSPAEGRAVTNEPEEEELATLSEEEIAMAVTAWEKGLESLPPLRPQQNPVLPVAGERNVLITSALPYVNNVPHLGNIIGCVLSADVFARYSRLRQWNTLYLCGTDEYGTATETKALEEGLTPQEICDKYHIIHADIYRWFNISFDIFGRTTTPQQTKITQDIFQQLLKRGFVLQDTVEQLRCEHCARFLADRFVEGVCPFCGYEEARGDQCDKCGKLINAVELKKPQCKVCRSCPVVQSSQHLFLDLPKLEKRLEEWLGRTLPGSDWTPNAQFITRSWLRDGLKPRCITRDLKWGTPVPLEGFEDKVFYVWFDATIGYLSITANYTDQWERWWKNPEQVDLYQFMAKDNVPFHSLVFPCSALGAEDNYTLVSHLIATEYLNYEDGKFSKSRGVGVFGDMAQDTGIPADIWRFYLLYIRPEGQDSAFSWTDLLLKNNSELLNNLGNFINRAGMFVSKFFGGYVPEMVLTPDDQRLLAHVTLELQHYHQLLEKVRIRDALRSILTISRHGNQYIQVNEPWKRIKGSEADRQRAGTVTGLAVNIAALLSVMLQPYMPTVSATIQAQLQLPPPACSILLTNFLCTLPAGHQIGTVSPLFQKLENDQIESLRQRFGGGQAKTSPKPAVVETVTTAKPQQIQALMDEVTKQGNIVRELKAQKADKNEVAAEVAKLLDLKKQLAVAEGKPPEAPKGKKKK
